No constants are given. Whether binding was seen depends on the method and setting. In cells and extracts the contact can be indirect. Here binding means that the protein was enriched with, or labelled near, the bait; the list need not be complete. For some of these results: Sequences can lack the tags named with a protein. Blank lines part the entries; values can stand above or below the binder they belong to.
Experiments:
Test in all cases: proximity labelling; TurboID-fused bait expressed from a centromeric CUP1-promoter plasmid in S. cerevisiae YDK11-5A; 500 μM copper sulphate and 500 μM biotin for 1 h at 30°C; biotinylated proteins purified on streptavidin agarose and identified by LC-MS/MS; enrichment against the GFP-TurboID and NLS-GFP-TurboID type controls
[1] = target: T1, TurboID-tagged Yar1 (both baits) (S. cerevisiae) (UniProt P46683)
T1 sequence: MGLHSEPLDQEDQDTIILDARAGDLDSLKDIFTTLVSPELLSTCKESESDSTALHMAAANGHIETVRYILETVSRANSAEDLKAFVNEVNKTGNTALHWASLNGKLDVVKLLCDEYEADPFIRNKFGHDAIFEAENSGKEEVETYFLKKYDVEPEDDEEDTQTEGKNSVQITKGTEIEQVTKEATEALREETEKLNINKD

[2] = target: T2, Sqt1-TurboID (S. cerevisiae) (UniProt P35184)
T2 sequence: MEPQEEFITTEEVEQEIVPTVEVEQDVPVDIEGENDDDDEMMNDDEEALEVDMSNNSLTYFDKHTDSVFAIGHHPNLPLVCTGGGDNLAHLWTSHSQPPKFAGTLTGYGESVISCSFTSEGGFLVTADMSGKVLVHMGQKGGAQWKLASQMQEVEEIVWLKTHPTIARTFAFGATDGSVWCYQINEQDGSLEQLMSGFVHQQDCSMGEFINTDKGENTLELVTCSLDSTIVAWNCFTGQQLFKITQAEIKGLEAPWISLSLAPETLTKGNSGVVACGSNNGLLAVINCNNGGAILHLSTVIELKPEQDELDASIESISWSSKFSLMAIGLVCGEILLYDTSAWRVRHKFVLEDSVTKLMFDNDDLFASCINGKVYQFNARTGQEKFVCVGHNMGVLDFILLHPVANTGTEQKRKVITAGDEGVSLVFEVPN

[3] = target: T3, TurboID-Sqt1 (S. cerevisiae) (UniProt P35184)
T3 sequence: T2 sequence

[4] = target: T4, TurboID-tagged Tsr4 (both baits) (S. cerevisiae) (UniProt P25040)
T4 sequence: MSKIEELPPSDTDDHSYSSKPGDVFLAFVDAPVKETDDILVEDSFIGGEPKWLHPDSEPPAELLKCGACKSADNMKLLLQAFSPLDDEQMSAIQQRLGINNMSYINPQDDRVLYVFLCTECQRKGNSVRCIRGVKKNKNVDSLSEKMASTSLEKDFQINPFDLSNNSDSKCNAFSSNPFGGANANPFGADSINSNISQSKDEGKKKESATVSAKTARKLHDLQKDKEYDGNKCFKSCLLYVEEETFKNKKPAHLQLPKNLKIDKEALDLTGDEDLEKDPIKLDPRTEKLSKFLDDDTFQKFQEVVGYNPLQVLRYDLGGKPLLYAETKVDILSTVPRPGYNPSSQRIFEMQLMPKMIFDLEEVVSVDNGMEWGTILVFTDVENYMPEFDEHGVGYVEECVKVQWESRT

[5] = target: T5, TurboID-tagged Acl4 (both baits) (S. cerevisiae) (UniProt Q03771)
T5 sequence: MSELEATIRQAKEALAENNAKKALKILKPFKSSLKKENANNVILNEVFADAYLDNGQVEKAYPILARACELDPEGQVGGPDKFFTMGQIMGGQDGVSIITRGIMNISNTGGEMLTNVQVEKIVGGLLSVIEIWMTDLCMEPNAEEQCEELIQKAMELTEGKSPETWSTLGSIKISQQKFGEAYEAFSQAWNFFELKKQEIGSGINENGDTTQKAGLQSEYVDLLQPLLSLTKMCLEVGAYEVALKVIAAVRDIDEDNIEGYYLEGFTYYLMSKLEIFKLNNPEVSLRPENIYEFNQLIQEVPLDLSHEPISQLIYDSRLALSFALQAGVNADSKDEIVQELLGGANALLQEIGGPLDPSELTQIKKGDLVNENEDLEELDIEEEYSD

[6] = target: T6, Bcl1-TurboID (S. cerevisiae) (UniProt P53962)
T6 sequence: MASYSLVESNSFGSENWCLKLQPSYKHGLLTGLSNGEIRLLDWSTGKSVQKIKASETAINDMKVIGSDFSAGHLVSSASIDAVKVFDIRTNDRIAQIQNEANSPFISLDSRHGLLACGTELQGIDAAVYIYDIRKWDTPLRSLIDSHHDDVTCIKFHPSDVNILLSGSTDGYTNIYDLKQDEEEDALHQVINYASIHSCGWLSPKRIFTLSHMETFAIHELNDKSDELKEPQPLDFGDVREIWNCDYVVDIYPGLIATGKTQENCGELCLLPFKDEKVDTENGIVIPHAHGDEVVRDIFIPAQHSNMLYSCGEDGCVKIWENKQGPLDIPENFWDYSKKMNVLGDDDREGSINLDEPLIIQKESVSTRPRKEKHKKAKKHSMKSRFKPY

[7] = target: T7, Rpl38-TurboID (S. cerevisiae) (UniProt P49167)
T7 sequence: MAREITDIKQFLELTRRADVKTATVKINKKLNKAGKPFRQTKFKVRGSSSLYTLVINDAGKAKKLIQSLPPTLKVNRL

B2: Rpl10 (endogenous) (protein, UniProt P41805 1-221)
chain: MARRPARCYRYQKNKPYPKSRYNRAVPDSKIRIYDLGKKKATVDEFPLCVHLVSNELEQLSSEALEAARICANKYMTTVSGRDAFHLRVRVHPFHVLRINKMLSCAGADRLQQGMRGAWGKPHGLAARVDIGQIIFSVRTKDSNKDVVVEGLRRARYKFPGQQKIILSKKWGFTNLDRPEYLKKREAGEVKDDGAFVKFLSKKGSLENNIREFPEYFAAQA
binding [2]: binds
binding [3]: binds

B4: Mak16 (endogenous) (protein, UniProt P10962 1-306)
chain: MSDEIVWQVINQSFCSHRIKAPNGQNFCRNEYNVTGLCTRQSCPLANSKYATVKCDNGKLYLYMKTPERAHTPAKLWERIKLSKNYTKALQQIDEHLLHWSKFFRHKCKQRFTKLTQVMITERRLALREEERHYVGVAPKVKRREQNRERKALVAAKIEKAIEKELMDRLKSGAYGDKPLNVDEKVWKKIMGQMEEENSQDEEEDWDEEEESDDGEVEYVADDGEGEYVDVDDLEKWLADSDREASSASESESDSESESDSDSDEENKNSAKRRKKGTSAKTKRPKVEIEYEEEHEVQNAEQEVAQ
binding [5]: binds

Second part, the binder after the results:

binding [1]: binds
B1: Rps3 (endogenous) (protein, UniProt P05750 1-240)
chain: MVALISKKRKLVADGVFYAELNEFFTRELAEEGYSGVEVRVTPTKTEVIIRATRTQDVLGENGRRINELTLLVQKRFKYAPGTIVLYAERVQDRGLSAVAQAESMKFKLLNGLAIRRAAYGVVRYVMESGAKGCEVVVSGKLRAARAKAMKFADGFLIHSGQPVNDFIDTATRHVLMRQGVLGIKVKIMRDPAKSRTGPKALPDAVTIIEPKEEEPILAPSVKDYRPAEETEAQAEPVEA

binding [4]: binds
B3: Rps2 (endogenous) (protein, UniProt P25443 1-254)
chain: MSAPEAQQQKRGGFGGRNRGRPNRRGPRNTEEKGWVPVTKLGRLVKAGKITTIEEIFLHSLPVKEFQIIDTLLPGLQDEVMNIKPVQKQTRAGQRTRFKAVVVVGDSNGHVGLGIKTAKEVAGAIRAGIIIAKLSVIPIRRGYWGTNLGQPHSLATKTTGKCGSVTVRLIPAPRGSGIVASPAVKKLLQLAGVEDVYTQSNGKTRTLENTLKAAFVAIGNTYGFLTPNLWAEQPLPVSPLDIYSDEASAQKKRF

binding [6]: binds
binding [7]: binds
B5: Kap121 (endogenous) (protein, UniProt P32337 1-1089)
chain: MSALPEEVNRTLLQIVQAFASPDNQIRSVAEKALSEEWITENNIEYLLTFLAEQAAFSQDTTVAALSAVLFRKLALKAPPSSKLMIMSKNITHIRKEVLAQIRSSLLKGFLSERADSIRHKLSDAIAECVQDDLPAWPELLQALIESLKSGNPNFRESSFRILTTVPYLITAVDINSILPIFQSGFTDASDNVKIAAVTAFVGYFKQLPKSEWSKLGILLPSLLNSLPRFLDDGKDDALASVFESLIELVELAPKLFKDMFDQIIQFTDMVIKNKDLEPPARTTALELLTVFSENAPQMCKSNQNYGQTLVMVTLIMMTEVSIDDDDAAEWIESDDTDDEEEVTYDHARQALDRVALKLGGEYLAAPLFQYLQQMITSTEWRERFAAMMALSSAAEGCADVLIGEIPKILDMVIPLINDPHPRVQYGCCNVLGQISTDFSPFIQRTAHDRILPALISKLTSECTSRVQTHAAAALVNFSEFASKDILEPYLDSLLTNLLVLLQSNKLYVQEQALTTIAFIAEAAKNKFIKYYDTLMPLLLNVLKVNNKDNSVLKGKCMECATLIGFAVGKEKFHEHSQELISILVALQNSDIDEDDALRSYLEQSWSRICRILGDDFVPLLPIVIPPLLITAKATQDVGLIEEEEAANFQQYPDWDVVQVQGKHIAIHTSVLDDKVSAMELLQSYATLLRGQFAVYVKEVMEEIALPSLDFYLHDGVRAAGATLIPILLSCLLAATGTQNEELVLLWHKASSKLIGGLMSEPMPEITQVYHNSLVNGIKVMGDNCLSEDQLAAFTKGVSANLTDTYERMQDRHGDGDEYNENIDEEEDFTDEDLLDEINKSIAAVLKTTNGHYLKNLENIWPMINTFLLDNEPILVIFALVVIGDLIQYGGEQTASMKNAFIPKVTECLISPDARIRQAASYIIGVCAQYAPSTYADVCIPTLDTLVQIVDFPGSKLEENRSSTENASAAIAKILYAYNSNIPNVDTYTANWFKTLPTITDKEAASFNYQFLSQLIENNSPIVCAQSNISAVVDSVIQALNERSLTEREGQTVISSVKKLLGFLPSSDAMAIFNRYPADIMEKVHKWFA
